Laboratory results taken from patent US20200121747A1, “COMPOSITION FOR PREVENTING OR TREATING ARTHRITIS COMPRISING HYDROQUINOIC ACID” (PUKYONG NATIONAL UNIVERSITY INDUSTRY-UNIVERSITY COOPERATION …, priority 2018, published 2020).
At least one structure is not confirmed: it was looked up by name or label, or the drawing left a doubt.

Assays:
Format in all cases: in vivo, DBA/1J mice
IL-1β = assay: Inflammatory cytokine IL-1β in blood by ELISA, CIA mice; details: treated for 25 days, FIG. 13
[1] = test system: rheumatoid arthritis of CIA mice; assay: Micro-CT of joints and bone indexes in CIA mice
IL-6 = assay: Inflammatory cytokine IL-6 in blood by ELISA, CIA mice; details: treated for 25 days, FIG. 14
[2] = test system: rheumatoid arthritis of CIA mice; assay: Paw thickness in CIA-induced rheumatoid arthritis mice; details: SHQA-treated group vs arthritis-induced group; every 5 days for 25 days after second injection; FIG. 5
[3] = test system: rheumatoid arthritis of CIA mice; assay: Arthritis index by visual inspection in CIA mice; details: score 0-4 per paw, highest 16; SHQA-treated vs arthritis-induced group; FIG. 7
[4] = test system: rheumatoid arthritis of CIA mice; assay: Spleen weight per body weight in CIA mice; details: SHQA-treated group vs arthritis-induced group; FIG. 6
[5] = test system: rheumatoid arthritis of CIA mice; assay: Visual observation of level of arthritis (hind paw) in CIA mice; details: 10 mg/kg and 40 mg/kg for 25 days; FIG. 8
TNF-α = assay: Inflammatory cytokine TNF-α in blood by ELISA, CIA mice; details: treated for 25 days, FIG. 12
[6] = compared to the CIA group, FIG. 11

Compound: CC(C)=CCC/C(=C/CC/C(C)=C/CC/C(C)=C/Cc1cc(O)cc(C)c1O)C(=O)O [SHQA, sargahydroquinoic acid]
- expression of IL-1β in blood (IL-1β): significantly inhibited
- bone and joint cracks (micro-CT) ([1]; SHQA at 10 mg/kg and 40 mg/kg for 25 days, lyprinol group, FIGS. 9 and 10): bone and joint cracks were not observed
- bone mineral density [1, 6]: improved
- volume-to-surface area of the bones [1, 6]: significantly decreased
- expression of IL-6 in blood (IL-6): significantly inhibited
- paw thickness [2]: significantly decreased
- arthritis evaluation index [3]: significantly decreased
- splenoma (weight of spleen per body weight) [4]: no splenoma appeared
- erythema symptoms (visual) [5]: erythema symptoms were alleviated
- swelling of hind paw (visual) [5]: swelling was reduced
- expression of TNF-α in blood (TNF-α): significantly inhibited
